Results from patent US9145382B2, “Organic compound and electrochromic device using the same” (CANON KABUSHIKI KAISHA, priority 2014, dated 2015).

Test: Electrochromic device evaluation (transmittance before and after applying voltage)
Settings: 2 volt applied; 75.0 mM each of A-1 and C-1 in propylene carbonate

| SMILES | main optical absorption of the colored species in the EC device |
| --- | --- |
| COC(=O)c1ccc(C[n+]2ccc(-c3cc[n+](Cc4ccc(C(=O)OC)cc4)cc3)cc2)cc1 [C-1, reference compound] | around 605 nm |
| COCCOCc1c(-c2c(OC)cccc2OC(C)C)sc(-c2c(OC)cccc2OC(C)C)c1COCCOC [A-1] | around 415 nm |
